From US20200071424A1

Tests used:
[1] = target: cynomolgus monkey EL (cynomolgus monkey); test: ELISA: antibody captured on anti-mouse IgG-Fc plate, EL heparin extract added, detection with biotin anti-C2-tag antibody and HRP-streptavidin, A450
[2] = target: rabbit EL (rabbit); test: as above
[3] = target: baboon EL (baboon); test: as above
[4] = target: baboon EL (baboon); test: hybridoma screening ELISA; baboon EL heparin extract
[5] = target: cynomolgus monkey EL (cynomolgus monkey); test: ELISA; Ab captured on anti-mouse IgG-Fc; EL heparin extract
[6] = target: rabbit EL (rabbit); test: as above
[7] = target: baboon EL (baboon); test: as above
[8] = target: Chimeric EL [187-500] (mouse;human); test: ELISA: antibody captured on anti-mouse IgG-Fc plate, EL heparin extract added, detection with biotin anti-C2-tag antibody and HRP-streptavidin, A450

Measured: binding

B1: 55A1 (antibody, mouse IgG2a, V domains shown)
VH: QIHLVQSGPELKKPGETVKISCKASGYTFTNYGMNWVKQAPGKGLKWMGWINTYSGVPTYAGDFKGRFAFSLETSASTAYLQINNLKNEDTATYFCARRGYYGRRYFDVWGTGTTVTVSS
VL: DIVLTQSPASLAVSLGQRATISCKASQSVDYDVDSYMHWYQQKPGQPPKLLIYAASNLASGIPARFSGGGSGTDFTLNIHPVEEEDVATYYCQQTIEDPPTFGGGTKLEIK
binds: [1] | [3] | [4] | [5] | [7]
no binding: [6]
no binding (tested: about 330 ng/mL): [2]

B2: 14A1 (antibody, mouse IgG1, V domains shown)
VH: QIQLVQSGPELKKPGETVKISCKASGYTFTNYGMNWVKQAPGKGLKWMGWINTYSGVPTYADDFKGRFAFSLETSASTAYLQINNFKNEDTATYFCARFSYYGRHYFDYWGQGTALTASS
VL: DIVLTQSPASLAVSLGQRATISCKASQSVDYDGDSYMNWYQQKPGQPPKLLIYAASNLKSGIPARFSGSGSGTDFTLNIHPVEEEDAATYYCQQTTDDPPWTFGGGTKLEIK
binds: [1] | [3] | [4] | [5] | [7]
no binding: [6]
no binding (tested: about 330 ng/mL): [2]

B3: 53A11 (antibody, mouse IgG2a, V domains shown)
VH: EVQLQQSGPELLKPGASVKISCKASGYTFTDYTMHWVKQSHGKSLEWIGGINPYYGGTTYNEKFKDKATLTVDKSSSTAYMELRSLTSEDSAVYYCAKGDYYGGSYNYWGQGTTLTVSS
VL: DIVLTQSLATLSVTPGDSVSLSCRASQDISNSLHWYQQKSHESPRLLIKYASQSISGIPSRFSGSGSGTDFTLSINSVETEDFGMYFCQQSNSWPYTFGGGTKLEIK
no binding: [6]
no binding (tested: about 330 ng/mL): [2]
binds: [1] | [3] | [4] | [5] | [7]

B4: 13B3 (antibody, mouse IgG2a, V domains shown)
VH: EVQLQQSGPELLKPGASVKISCKASGYTFTEYTMHWVKQSHGKSLEWIGSINPYYGGTSYNEKFKDKATLTVDKSSNTAYMEFRSLTSEDCAVYYCARYGNYVGYFDYWGQGTTLTVSS
VL: ENVLTQSPAIMSASLGEKVTMSCRASSSVHYMYWYQQKSDASPKLWIYYTSNLAPGVPDRFSGSGSGNSYSLTISSMEGEDAATYYCQQFTSSPYTFGGGTKLEIK
binds: [1] | [2] | [3] | [4] | [5] | [6] | [7]

B5: 23H8 (antibody, mouse IgG2a, V domains shown)
VH: EVQLQQSGPELLKPGASVKISCKASGYTFTDNTIHWVKQSHGKSLEWIGHINPYYGGTNNNEKFKDKATLTVDKSSSTAYMELRSLTSEDSAIYYCARKGIYYSSPFDYWGQGTTLTVSS
VL: DIQMTQTTSSLSASLGDRVTISCRASQDINNYLNWYQQKPDGTVKLLISYTSKLHSGVPSRFSGSGSGTDYSLTISNLEREDFATYFCQQGNTLPFTFGSGTNLEIK
binds: [1] | [2] | [3] | [4] | [5] | [6] | [7]

B6: 16B3 (antibody, mouse IgG2a, V domains shown)
VH: DVKLVESGGGLVQPGGSLKLSCTASGFTFSGYTMSWVRQTPEKRLELVAEISFARDRAFYPDTVKGRFTISRDNAKNTLYLQMSSLKSEDTAMYYCTRLGGRNHDYWYFDVWGTGTTVTVSS
VL: DIVLTQSPTSLAVSPGQRATISCRASESVEYYGTSLMQWYQQKPGQRPQLLIYAASNVESGVPARFSGSGSGTDFSLNIHPVEEDDIAVYFCQQSWKVPFTFGSGTKLEIK
binds: [1] | [2] | [3] | [4] | [5] | [6] | [7]

B7: 14E1 (antibody, mouse IgG1, V domains shown)
VH: QVQLQQSGAELVKPGASVRLSCKASGYTFTKYTIHWVKQRSGQGLEWIGWFYPGSDSIKYNEKFKDKATLTADKSSRTVYMELSRLTSEDSAVYFCARHEEYTNSLAYWGQGTLVTVSA
VL: DIQMTQTTSSLSASLGDRVTISCRASQDISNYLNWYQQQPDGTVKLLIYYTSRLHSGVPSRFSGSGSGTDYSLTISNLEQEDIATYFCQQGYTLPWTFGGGTNLEIK
binds: [1] | [2] | [3] | [4] | [5] | [6] | [7]

B8: 7D4 (antibody, mouse IgG1, V domains shown)
VH: QIQLVQSGPELKKPGETVKISCKASGYTFTNYGMNWVKQAPGKDLKWMGWINTYSGVPTYADDFKGRFAFSLETSASTAYLQINNLKNEDTATYFCARFSYYGRHYFDYWGQGTTLTVSS
VL: DIVLTQSPASLAVSLGQRATISCKASQSVDYDGDSYMNWYQQKPGQPPQLLIYAASNLGSGIPARFSGSGSGTDFTLNIHPVEEEDAATYYCHQSTDDPPWTFGGGTKLEIK
no binding (tested: about 330 ng/mL): [2]
no binding: [6]
binds: [1] | [3] | [4] | [5] | [7]

B9: 19E7 (antibody, mouse IgG2a, V domains shown)
VH: QVQLQQPGSVLVRPGASVKLSCKASGYTFTTYWMHWVKQRPGQGLEWIGEIHPYSGNNNNNEKFKGKATLTVDTSSSTAYVDLSRLTSEDSAVYYCARYDSNYVFAYWGQGTLVTVSA
VL: QIVLTQSPAIMSASPGEGVTITCSASSSVSYMHWFQQKPGTSPKLWIYSTSNLASGVPARFSGSGSGTSYSLTISRMEAEDAATYYCQQRDSYLTFGSGTKLEVK
binds: [1] | [2] | [3] | [4] | [5] | [6] | [7]

B10: 16F6 (antibody, V domains shown)
VH: QVQLQQSGAELMKPGASVKISCKATGYTFSTYWIAWVKQRPGHGLEWIGEILPGSAKTKYNKKFKGKATFTADTSSNTAYMQLSSLTSEDSAVYYCAVYDYGADYWGQGTSVTVSS
VL: DIVMTQSHKFMSTSVGDRVSITCKASQDVYTAVAWYQQKPGQSPKLLIYSASYRFTGVPDRFTGSGAGTEFTFTINSVQAEDLAVYYCQQHYSIPRTFGGGTKLEIK
binds: [3] | [8]

Results are given in words; binding and its absence hold for the method and conditions named. Binding can be weak; no strength is given.
